{"source": "patent US20120122981A1", "about": "“Biomarkers Related to Insulin Resistance and Methods using the Same” (priority 2009, published 2012)", "data": [{"assay": "Prediction of progression to dyslipidemia at 3 years from baseline plasma biomarker levels, t-test and Random Forest (Tables 28, 29)", "parameters": "species or system human", "conditions": "progressor mean / non-progressor mean", "values": [{"compound": "1-oleoyl-2-hydroxy-sn-glycero-3-phosphocholine [Oleoyl-LPC]", "RATIO": 0.95}, {"compound": "1-palmitoyl-2-hydroxy-sn-glycero-3-phosphocholine [Palmitoyl-LPC]", "RATIO": 0.97}, {"compound": "CC[C@H](O)C(=O)O", "note": "[2-hydroxybutyrate]", "RATIO": 1.01}, {"compound": "CC(O)CC(=O)O", "note": "(stereo not drawn) [3-hydroxy-butyrate, 3-hydroxybutanoic acid]", "RATIO": 0.87}, {"compound": "N=C(N)NCCC[C@H](N)C(=O)O", "note": "[Arginine]", "RATIO": 1.01}, {"compound": "C[N+](C)(C)CC(=O)[O-]", "note": "[Betaine, 2-(trimethylazaniumyl)acetate]", "RATIO": 1.14}, {"compound": "CC(C)C(=O)C(=O)O", "note": "[Biomarker 3-methyl-2-oxo-butyric_acid]", "RATIO": 1.03}, {"compound": "CN(CC(=O)O)C(=N)N", "note": "[Creatine, 2-[carbamimidoyl(methyl)amino]acetic acid]", "RATIO": 0.90}, {"compound": "NCC(=O)O", "note": "[Glycine, 2-aminoacetic acid]", "RATIO": 0.94}, {"compound": "CCCCC/C=C\\C/C=C\\CCCCCCCC(=O)OC[C@@H](O)COP(=O)([O-])OCC[N+](C)(C)C", "note": "[Linoleoyl-LPC, 1-linoleoyl-2-hydroxy-sn-glycero-3-phosphocholine]", "RATIO": 1.01}, {"compound": "CCCCCCCCCCCCCCCC(=O)O", "note": "[Palmitate]", "RATIO": 0.90}, {"compound": "NC(CO)C(=O)O", "note": "(stereo not drawn) [Serine, 2-amino-3-hydroxy-propanoic acid]", "RATIO": 0.97}, {"compound": "CCCCCCCCCCCCCCCCCC(=O)O", "note": "[Stearic acid (Stearate), Octadecanoic acid]", "RATIO": 0.94}, {"compound": "C[C@@H](O)[C@H](N)C(=O)O", "note": "[Threonine]", "RATIO": 1.00}, {"compound": "N[C@@H](Cc1c[nH]c2ccccc12)C(=O)O", "note": "[Tryptophan]", "RATIO": 1.02}, {"compound": "N[C@@H](CCC(=O)O)C(=O)O", "note": "[glutamic_acid]", "RATIO": 1.10}, {"compound": "CCCCC/C=C\\C/C=C\\CCCCCCCC(=O)O", "note": "[linoleic_acid]", "RATIO": 0.98}, {"compound": "CCCCCCCCCCCCCCCCC(=O)O", "note": "[margaric_acid]", "RATIO": 0.96}, {"compound": "CCCCCCCC(=O)O[C@H](CC(=O)O)C[N+](C)(C)C", "note": "[octanoyl_carnitine]", "RATIO": 1.06}, {"compound": "CCCCCCCC/C=C\\CCCCCCCC(=O)O", "note": "[oleic_acid]", "RATIO": 0.88}, {"compound": "CCCCCC/C=C\\CCCCCCCC(=O)O", "note": "[palmitoleic_acid]", "RATIO": 0.68}, {"compound": "docosatetraenoic_acid", "RATIO": 0.99}, {"compound": "linolenic_acid", "RATIO": 0.81}]}, {"assay": "Targeted LC-MS-MS biomarker levels in plasma of bariatric surgery subjects (baseline vs post-surgery)", "type": "in vivo, human", "conditions": "post-surgery as insulin sensitivity increases", "values": [{"compound": "CC[C@H](O)C(=O)O", "note": "[2-hydroxybutyrate]", "change of biomarker level following bariatric surgery": "decreased"}]}]}
